Experimental data reported in publication PMC7665214.
These are yes or no findings as the source states them, for the method shown. Binding seen in cells or lysates may run through a third protein. Some results given as binding are weak or reduced against the parent protein; the word gives no strength.

Protein sequences, listed by entry. Tags and fused reporters are not part of them.
UniProt Q96J92: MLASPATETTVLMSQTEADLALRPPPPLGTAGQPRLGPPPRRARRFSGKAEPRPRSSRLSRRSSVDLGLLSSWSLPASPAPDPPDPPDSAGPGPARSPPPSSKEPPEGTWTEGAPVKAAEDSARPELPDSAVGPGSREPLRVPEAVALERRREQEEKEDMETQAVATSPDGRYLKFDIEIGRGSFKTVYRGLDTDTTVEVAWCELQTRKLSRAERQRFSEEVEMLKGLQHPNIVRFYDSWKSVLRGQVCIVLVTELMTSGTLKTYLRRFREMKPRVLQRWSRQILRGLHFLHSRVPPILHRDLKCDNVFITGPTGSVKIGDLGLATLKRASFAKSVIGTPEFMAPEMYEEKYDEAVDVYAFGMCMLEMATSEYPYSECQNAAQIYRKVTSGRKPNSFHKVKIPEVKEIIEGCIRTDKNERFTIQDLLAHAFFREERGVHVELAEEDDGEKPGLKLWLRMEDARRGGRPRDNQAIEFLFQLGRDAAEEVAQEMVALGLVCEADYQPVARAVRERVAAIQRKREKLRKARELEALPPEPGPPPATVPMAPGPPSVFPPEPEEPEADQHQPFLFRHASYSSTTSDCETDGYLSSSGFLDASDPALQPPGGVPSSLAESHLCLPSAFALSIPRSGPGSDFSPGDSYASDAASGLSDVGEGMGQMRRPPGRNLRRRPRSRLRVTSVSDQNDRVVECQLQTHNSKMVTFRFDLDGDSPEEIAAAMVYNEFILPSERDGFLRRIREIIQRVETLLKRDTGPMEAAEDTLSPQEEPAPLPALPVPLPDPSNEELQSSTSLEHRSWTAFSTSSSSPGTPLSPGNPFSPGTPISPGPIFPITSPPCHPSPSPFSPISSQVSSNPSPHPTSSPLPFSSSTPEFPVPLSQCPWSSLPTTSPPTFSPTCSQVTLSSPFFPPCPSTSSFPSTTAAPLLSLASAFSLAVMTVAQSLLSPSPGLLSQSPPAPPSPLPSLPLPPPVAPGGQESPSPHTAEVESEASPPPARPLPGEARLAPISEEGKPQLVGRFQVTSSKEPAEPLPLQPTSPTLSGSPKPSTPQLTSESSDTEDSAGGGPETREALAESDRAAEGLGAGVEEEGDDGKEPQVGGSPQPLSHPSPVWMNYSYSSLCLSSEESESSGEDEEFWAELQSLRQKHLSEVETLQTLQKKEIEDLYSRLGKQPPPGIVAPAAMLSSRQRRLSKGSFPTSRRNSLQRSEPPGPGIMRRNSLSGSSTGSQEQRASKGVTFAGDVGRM
UniProt Q7L5Y9: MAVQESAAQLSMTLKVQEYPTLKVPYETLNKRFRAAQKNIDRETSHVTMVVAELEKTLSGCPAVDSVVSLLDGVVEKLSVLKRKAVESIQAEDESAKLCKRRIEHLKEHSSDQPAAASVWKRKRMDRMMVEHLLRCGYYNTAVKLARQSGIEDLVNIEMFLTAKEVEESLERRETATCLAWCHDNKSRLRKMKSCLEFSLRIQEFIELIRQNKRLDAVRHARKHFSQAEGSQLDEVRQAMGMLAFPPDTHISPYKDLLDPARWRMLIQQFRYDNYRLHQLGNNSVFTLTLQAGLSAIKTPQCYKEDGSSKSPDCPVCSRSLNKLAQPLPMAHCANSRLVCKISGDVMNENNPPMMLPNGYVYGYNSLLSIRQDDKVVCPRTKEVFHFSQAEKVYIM
UniProt P35222: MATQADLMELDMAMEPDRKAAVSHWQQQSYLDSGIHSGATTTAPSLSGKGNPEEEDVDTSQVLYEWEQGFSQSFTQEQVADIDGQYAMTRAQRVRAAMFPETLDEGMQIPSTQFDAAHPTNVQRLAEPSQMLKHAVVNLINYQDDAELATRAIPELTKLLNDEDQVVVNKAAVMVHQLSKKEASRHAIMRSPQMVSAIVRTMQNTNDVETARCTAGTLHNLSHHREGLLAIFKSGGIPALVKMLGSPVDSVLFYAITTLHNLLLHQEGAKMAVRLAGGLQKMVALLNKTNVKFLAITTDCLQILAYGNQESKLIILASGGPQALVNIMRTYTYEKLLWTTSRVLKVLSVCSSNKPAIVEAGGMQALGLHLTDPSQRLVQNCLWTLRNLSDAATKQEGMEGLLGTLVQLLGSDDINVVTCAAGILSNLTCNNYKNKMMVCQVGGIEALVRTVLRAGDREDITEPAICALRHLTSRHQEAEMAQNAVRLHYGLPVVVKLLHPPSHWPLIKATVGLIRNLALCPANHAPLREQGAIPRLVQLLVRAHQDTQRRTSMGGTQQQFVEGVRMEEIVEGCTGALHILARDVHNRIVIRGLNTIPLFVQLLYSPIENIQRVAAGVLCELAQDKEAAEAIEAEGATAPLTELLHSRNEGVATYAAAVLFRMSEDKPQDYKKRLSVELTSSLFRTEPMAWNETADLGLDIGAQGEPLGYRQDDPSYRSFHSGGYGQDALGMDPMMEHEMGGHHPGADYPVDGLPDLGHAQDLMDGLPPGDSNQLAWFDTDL
UniProt Q9H4A3: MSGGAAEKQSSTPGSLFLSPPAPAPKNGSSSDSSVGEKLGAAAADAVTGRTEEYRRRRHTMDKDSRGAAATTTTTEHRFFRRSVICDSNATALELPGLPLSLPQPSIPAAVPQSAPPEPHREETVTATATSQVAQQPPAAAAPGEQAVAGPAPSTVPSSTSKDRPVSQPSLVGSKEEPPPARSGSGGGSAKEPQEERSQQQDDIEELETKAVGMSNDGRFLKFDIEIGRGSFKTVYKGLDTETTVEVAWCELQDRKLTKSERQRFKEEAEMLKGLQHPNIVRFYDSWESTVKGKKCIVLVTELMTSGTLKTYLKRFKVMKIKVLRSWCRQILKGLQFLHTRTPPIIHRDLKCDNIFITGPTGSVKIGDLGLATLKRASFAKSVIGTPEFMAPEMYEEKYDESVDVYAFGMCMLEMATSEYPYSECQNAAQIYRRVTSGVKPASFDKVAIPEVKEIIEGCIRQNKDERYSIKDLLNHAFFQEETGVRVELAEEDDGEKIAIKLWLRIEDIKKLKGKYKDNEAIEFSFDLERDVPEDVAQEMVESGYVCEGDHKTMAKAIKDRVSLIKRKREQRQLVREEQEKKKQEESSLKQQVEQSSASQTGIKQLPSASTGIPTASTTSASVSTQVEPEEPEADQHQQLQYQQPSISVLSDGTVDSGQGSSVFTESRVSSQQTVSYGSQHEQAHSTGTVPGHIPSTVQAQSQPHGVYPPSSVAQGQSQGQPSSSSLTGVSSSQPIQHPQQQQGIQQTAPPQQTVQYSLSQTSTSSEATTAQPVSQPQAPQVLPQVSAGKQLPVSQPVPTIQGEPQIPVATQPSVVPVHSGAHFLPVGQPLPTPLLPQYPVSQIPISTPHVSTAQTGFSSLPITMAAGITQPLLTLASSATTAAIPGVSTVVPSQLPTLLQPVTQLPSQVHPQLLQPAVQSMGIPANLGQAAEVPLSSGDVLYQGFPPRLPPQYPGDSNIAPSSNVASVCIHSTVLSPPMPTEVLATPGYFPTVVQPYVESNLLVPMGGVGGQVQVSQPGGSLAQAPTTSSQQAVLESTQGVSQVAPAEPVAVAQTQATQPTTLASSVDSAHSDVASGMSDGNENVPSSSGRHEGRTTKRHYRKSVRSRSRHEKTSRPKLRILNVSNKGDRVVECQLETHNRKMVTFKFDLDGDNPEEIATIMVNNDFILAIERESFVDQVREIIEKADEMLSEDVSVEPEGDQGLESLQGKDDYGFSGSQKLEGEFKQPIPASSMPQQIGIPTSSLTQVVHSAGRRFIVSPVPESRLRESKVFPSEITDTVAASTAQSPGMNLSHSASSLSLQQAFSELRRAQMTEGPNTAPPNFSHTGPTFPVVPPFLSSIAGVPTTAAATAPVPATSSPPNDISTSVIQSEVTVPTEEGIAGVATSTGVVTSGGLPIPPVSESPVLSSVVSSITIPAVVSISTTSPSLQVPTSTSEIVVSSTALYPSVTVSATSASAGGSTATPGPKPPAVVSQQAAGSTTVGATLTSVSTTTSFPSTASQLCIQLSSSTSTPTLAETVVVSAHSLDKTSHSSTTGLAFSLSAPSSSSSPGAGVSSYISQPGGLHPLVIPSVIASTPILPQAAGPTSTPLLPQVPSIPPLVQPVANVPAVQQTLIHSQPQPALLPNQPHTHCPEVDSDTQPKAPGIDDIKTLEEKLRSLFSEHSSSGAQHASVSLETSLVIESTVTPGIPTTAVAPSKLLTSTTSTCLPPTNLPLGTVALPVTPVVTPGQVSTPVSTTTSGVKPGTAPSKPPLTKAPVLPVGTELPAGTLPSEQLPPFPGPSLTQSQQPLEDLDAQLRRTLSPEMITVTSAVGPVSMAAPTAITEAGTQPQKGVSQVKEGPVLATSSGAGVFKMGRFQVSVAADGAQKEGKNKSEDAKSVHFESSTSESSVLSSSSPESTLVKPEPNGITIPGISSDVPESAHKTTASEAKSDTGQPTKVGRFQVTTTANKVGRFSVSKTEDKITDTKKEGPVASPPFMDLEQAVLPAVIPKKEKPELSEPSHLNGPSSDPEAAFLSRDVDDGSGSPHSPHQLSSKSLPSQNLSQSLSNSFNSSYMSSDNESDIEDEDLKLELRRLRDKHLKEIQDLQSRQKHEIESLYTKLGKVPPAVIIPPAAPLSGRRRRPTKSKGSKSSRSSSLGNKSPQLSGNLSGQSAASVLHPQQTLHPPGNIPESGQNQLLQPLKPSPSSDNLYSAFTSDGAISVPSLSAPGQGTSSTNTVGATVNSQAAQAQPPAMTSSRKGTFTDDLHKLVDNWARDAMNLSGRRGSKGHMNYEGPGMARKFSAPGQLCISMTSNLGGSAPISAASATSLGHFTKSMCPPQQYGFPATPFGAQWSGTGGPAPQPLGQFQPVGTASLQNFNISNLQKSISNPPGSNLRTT
UniProt Q9H871: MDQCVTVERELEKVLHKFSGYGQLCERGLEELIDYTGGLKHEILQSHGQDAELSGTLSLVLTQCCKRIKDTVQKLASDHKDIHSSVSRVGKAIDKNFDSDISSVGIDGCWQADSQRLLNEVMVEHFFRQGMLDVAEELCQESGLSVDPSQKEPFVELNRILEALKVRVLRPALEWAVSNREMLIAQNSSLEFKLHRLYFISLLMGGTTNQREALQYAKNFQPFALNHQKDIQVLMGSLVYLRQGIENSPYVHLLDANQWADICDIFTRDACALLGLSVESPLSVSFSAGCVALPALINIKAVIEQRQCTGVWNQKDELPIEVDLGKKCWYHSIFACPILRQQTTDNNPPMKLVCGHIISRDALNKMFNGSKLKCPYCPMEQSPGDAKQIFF

What was measured:
Assay in all cases: co-IP; HEK293T cells transfected with the indicated expression vectors; lysates immunoprecipitated with the indicated antibodies (anti-myc for Fig. 3a, b) and Protein A/G PLUS-agarose; western blot; some panels with expression or knockdown of WNK1 and/or WNK4, or treatment with 26016 or #13
[1] = molecular target: WNK4 (With No Lysine [K] kinase 4), myc-tagged (UniProt Q96J92)
[2] = molecular target: MAEA, Flag-tagged (UniProt Q7L5Y9)
[3] = molecular target: β-Catenin (UniProt P35222)

Substance	binding [1]	binding [2]	binding [3]
WNK1 (With No Lysine [K] kinase 1), myc-tagged (from UniProt Q9H4A3 1-2382)	binds	–	–
RMND5A, Flag-tagged (from UniProt Q9H871 1-391)	binds	binds	no binding
